Drawing on the supplement of paper PMC12819154, “High-throughput peptide-centric local stability assay extends protein–ligand identification to membrane proteins, tissues and bacteria” (Nature Structural & Molecular Biology, 2025), this text covers log2 fold change for 37 targets.

Protein sequences, listed by entry. Tags and fused reporters are not part of them. Lines headed by an entry give the natural chain unless they say otherwise; changes in a name come on top.
UniProt Q6PJI9: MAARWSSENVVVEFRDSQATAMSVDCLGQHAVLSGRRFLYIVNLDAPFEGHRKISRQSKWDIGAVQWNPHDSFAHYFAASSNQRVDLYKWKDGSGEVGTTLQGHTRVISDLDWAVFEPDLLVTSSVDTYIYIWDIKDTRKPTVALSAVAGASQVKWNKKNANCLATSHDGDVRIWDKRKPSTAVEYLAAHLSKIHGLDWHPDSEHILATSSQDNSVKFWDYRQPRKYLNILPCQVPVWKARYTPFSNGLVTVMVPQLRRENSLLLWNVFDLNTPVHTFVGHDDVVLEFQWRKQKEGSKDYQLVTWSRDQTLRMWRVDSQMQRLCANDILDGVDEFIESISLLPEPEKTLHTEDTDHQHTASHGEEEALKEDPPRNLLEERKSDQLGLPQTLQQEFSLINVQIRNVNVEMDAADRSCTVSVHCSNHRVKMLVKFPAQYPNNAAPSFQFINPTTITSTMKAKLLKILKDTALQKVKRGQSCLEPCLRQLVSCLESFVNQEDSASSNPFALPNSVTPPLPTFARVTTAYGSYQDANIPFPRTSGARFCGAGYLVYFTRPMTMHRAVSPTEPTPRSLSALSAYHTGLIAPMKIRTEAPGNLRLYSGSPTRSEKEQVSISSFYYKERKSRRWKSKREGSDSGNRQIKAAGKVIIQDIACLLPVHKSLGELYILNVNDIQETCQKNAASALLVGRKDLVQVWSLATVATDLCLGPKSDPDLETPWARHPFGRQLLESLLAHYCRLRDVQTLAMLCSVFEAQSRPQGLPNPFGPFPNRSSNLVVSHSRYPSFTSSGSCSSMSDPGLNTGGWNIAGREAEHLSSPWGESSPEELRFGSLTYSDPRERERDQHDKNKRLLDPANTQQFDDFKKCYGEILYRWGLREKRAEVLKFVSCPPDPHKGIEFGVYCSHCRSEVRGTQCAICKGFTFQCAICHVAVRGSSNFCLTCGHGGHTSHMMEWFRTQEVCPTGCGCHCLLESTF
UniProt Q6P1N0: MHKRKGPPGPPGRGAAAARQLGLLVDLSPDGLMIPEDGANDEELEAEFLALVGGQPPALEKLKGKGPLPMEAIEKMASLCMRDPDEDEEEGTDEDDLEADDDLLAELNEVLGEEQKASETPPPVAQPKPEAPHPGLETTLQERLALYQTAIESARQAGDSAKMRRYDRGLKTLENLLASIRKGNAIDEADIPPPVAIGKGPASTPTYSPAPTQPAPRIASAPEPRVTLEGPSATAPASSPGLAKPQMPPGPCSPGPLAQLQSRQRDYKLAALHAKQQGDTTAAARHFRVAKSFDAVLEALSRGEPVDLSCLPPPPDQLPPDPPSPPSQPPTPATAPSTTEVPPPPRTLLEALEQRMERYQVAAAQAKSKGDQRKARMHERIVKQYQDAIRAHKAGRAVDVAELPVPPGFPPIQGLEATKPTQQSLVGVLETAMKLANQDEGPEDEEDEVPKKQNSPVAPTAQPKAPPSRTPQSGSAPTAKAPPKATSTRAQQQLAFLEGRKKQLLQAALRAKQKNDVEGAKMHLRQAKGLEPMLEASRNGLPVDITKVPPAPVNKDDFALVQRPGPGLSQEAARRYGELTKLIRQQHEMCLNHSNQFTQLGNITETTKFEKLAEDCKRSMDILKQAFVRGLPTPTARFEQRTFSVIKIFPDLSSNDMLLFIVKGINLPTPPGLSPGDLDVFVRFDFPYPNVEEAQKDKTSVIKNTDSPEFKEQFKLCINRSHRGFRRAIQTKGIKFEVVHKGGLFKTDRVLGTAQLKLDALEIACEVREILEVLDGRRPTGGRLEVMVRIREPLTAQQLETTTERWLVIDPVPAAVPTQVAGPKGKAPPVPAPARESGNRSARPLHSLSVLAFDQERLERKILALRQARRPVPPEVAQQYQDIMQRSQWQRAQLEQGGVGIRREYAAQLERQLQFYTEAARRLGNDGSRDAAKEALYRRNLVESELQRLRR
UniProt Q6UB99: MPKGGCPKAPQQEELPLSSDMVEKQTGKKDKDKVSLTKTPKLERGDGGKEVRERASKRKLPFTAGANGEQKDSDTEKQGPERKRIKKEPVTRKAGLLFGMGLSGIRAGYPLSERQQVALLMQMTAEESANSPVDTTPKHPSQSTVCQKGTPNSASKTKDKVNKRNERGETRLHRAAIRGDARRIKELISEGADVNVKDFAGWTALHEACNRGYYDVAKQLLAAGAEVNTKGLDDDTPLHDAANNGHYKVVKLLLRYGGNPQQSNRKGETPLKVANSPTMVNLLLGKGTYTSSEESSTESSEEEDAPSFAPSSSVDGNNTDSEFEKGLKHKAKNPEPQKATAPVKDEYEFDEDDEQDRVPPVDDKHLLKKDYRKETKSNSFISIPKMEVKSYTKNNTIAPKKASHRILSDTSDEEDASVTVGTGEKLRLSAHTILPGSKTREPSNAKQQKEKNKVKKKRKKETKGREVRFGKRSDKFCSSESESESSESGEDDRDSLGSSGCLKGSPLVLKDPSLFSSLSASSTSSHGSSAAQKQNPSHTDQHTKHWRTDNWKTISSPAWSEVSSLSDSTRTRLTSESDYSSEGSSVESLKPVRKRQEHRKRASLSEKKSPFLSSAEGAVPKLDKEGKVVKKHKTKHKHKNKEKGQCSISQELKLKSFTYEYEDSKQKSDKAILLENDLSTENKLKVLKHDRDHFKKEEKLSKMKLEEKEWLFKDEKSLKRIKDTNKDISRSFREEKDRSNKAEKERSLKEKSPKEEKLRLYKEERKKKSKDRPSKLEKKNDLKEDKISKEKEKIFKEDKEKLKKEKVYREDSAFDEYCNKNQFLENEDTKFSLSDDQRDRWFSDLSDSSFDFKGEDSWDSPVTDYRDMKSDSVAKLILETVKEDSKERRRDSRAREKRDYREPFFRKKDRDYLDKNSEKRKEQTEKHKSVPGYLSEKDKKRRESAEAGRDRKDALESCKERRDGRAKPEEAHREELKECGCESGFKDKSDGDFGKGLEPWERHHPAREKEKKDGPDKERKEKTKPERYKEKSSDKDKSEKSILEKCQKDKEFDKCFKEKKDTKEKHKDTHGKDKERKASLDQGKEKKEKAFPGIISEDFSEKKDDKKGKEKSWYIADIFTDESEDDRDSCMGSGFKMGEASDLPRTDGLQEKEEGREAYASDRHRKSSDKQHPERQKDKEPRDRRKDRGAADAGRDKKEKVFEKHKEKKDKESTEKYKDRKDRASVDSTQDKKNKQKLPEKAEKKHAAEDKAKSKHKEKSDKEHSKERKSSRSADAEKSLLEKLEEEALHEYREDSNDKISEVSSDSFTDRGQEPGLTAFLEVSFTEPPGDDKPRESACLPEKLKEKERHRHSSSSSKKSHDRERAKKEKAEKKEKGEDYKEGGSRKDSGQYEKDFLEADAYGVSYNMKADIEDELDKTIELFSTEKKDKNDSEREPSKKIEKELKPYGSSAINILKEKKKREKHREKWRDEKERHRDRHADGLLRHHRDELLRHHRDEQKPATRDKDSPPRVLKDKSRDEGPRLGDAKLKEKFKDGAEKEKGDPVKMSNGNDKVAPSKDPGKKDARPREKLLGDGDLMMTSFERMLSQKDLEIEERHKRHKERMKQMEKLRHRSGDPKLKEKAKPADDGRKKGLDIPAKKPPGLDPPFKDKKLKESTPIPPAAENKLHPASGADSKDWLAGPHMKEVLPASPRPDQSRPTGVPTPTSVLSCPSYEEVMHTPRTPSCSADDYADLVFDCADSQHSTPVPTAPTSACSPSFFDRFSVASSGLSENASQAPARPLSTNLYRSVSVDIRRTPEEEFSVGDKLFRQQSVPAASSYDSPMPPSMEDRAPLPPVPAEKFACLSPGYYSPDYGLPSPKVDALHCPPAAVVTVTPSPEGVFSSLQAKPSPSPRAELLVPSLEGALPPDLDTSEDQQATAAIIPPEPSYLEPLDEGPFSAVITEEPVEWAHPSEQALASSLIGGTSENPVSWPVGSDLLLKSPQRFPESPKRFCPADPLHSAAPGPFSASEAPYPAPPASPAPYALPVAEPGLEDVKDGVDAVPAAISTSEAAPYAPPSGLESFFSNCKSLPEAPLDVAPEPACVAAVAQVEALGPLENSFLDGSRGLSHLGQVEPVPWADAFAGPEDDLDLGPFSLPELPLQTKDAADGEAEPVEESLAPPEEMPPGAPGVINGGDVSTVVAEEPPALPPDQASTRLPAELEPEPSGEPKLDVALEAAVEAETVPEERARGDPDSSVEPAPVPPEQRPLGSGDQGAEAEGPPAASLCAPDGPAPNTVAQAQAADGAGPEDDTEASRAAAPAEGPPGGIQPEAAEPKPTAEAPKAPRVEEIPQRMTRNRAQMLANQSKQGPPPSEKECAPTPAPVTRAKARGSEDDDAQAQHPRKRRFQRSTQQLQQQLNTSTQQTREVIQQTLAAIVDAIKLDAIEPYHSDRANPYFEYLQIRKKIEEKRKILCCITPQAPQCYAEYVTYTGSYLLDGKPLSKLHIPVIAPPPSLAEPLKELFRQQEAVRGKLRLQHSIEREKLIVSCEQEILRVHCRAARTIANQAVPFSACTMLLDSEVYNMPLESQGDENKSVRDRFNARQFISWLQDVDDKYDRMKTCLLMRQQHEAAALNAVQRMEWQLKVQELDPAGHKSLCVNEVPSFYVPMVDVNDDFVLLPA
UniProt Q674X7: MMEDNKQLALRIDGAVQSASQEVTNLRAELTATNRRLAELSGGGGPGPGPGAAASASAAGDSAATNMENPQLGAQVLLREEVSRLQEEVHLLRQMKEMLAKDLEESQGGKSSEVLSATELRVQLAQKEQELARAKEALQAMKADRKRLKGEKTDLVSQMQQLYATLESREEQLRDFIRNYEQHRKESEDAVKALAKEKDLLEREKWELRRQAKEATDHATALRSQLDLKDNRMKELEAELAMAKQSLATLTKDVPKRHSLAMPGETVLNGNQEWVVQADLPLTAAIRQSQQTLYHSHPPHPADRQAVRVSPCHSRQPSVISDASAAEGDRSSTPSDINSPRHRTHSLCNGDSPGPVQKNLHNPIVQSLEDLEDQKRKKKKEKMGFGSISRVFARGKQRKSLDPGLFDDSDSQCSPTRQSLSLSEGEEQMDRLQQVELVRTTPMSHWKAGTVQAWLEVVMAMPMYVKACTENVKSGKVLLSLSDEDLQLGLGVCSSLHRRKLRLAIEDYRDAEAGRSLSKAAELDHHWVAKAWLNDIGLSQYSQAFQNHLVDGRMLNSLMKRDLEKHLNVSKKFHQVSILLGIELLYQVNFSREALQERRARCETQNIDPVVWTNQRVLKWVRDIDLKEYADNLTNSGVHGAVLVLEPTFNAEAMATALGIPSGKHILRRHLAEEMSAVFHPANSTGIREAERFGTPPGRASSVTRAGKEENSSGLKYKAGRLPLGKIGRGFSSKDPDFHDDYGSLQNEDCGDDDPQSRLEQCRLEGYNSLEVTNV
UniProt Q6IPR1: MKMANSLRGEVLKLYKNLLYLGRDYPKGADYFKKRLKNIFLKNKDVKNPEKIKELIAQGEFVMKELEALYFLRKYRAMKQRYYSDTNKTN
UniProt Q66GS9: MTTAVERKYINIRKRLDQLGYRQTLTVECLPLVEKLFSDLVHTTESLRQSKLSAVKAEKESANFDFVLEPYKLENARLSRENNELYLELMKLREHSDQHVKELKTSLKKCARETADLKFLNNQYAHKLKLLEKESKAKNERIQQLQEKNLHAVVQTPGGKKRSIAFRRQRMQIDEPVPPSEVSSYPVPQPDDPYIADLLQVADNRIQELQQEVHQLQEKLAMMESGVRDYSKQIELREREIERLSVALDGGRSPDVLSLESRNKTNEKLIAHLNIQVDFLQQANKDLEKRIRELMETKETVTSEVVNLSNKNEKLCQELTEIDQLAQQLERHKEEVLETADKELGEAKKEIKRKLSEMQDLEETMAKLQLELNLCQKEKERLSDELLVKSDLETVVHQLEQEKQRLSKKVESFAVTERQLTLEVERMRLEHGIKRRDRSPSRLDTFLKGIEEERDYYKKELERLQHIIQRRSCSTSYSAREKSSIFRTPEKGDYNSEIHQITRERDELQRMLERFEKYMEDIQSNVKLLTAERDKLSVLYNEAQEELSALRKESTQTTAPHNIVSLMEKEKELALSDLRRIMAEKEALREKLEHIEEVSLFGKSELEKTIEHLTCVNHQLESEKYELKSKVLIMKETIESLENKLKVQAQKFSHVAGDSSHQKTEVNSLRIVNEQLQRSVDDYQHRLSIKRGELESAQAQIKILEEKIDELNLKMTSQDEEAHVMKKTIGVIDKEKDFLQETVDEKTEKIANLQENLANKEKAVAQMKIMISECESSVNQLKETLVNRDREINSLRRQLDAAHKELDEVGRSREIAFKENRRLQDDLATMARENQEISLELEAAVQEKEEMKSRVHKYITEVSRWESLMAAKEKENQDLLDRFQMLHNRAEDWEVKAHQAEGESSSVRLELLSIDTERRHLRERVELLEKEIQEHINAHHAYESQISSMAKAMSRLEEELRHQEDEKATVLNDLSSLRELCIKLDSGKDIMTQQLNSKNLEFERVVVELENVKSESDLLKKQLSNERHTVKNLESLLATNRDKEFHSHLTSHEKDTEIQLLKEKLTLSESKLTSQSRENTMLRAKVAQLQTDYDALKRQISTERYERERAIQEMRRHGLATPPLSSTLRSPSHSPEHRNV

This is one part of the list. Small differences around the control level are noise.

Compound in the assay: CN[C@@H]1C[C@H]2O[C@@](C)([C@@H]1OC)n1c3ccccc3c3c4c(c5c6ccccc6n2c5c31)C(=O)NC4 [staurosporine]
The experiment in a line: log2 fold change of tryptic peptide abundance, ligand vs vehicle (limited proteolysis) (log2 ratio); higher = more trypsin-susceptible (destabilized). Conditions: ligand concentration: 20 uM; sample: K562 cleared lysate; digestion: 4 min, 22 C (HT-PELSA RT4min, Orbitrap Astral).
As to “WDR59 (peptide sequence: LLDPANTQQFDDFKK, peptide start residue: 850) (UniProt Q6PJI9)”, the log2 fold change is 0.192.
To “UniProt Q6YP21 (peptide sequence: KLSAIPVSAFCNSETK, peptide start residue: 406)” belongs 0.215; to “CC2D1A (peptide sequence: LAEDCKR, peptide start residue: 612) (UniProt Q6P1N0)”, 0.678; to “UniProt Q6NXS1 (peptide sequence: KLAAAEGLEPK, peptide start residue: 103)”, 0.284.
To “ANKRD11 (peptide sequence: ESACLPEKLK, peptide start residue: 1336) (UniProt Q6UB99)” belongs 1.16.
To “PSRC1 (peptide sequence: STPSPSSLTPR, peptide start residue: 137) (UniProt Q6PGN9)” belongs 0.142; to “UniProt Q641Q2 (peptide sequence: KQTLCLQAQREEK, peptide start residue: 590)”, 0.487; to “UniProt Q6N069 (peptide sequence: ALQISTLEER, peptide start residue: 267)”, -0.401.
“HIST2H2BC (peptide sequence: LAHYNKR, peptide start residue: 81) (UniProt Q6DN03)”: the log2 fold change was 0.149.
The figure for “JMJD6 (peptide sequence: WCLFPTSTPR, peptide start residue: 206) (UniProt Q6NYC1)” is 0.27; for “UniProt Q6NZI2 (peptide sequence: EGQVEVLK, peptide start residue: 330)” it is -0.133.
The figure for “UniProt Q6IQ49 (peptide sequence: MVTETEETQEK, peptide start residue: 312)” is -0.144; for “FBXO46 (peptide sequence: VAFFVAHQCGGGSR, peptide start residue: 101) (UniProt Q6PJ61)” it is 0.319.
The figure for “E4F1 (peptide sequence: GTVIHEVHVQMQELSLGMK, peptide start residue: 329) (UniProt Q66K89)” is 0.401.
For “RINT1 (peptide sequence: MQLEEQVLTISSEIPKR, peptide start residue: 86) (UniProt Q6NUQ1)”, the log2 fold change was determined as 0.153.
To “KAZN (peptide sequence: VQLAQKEQELAR, peptide start residue: 122) (UniProt Q674X7)” belongs -0.272.
The figure for “SLC30A10 (peptide sequence: TQEDQCYVNR, peptide start residue: 473) (UniProt Q6XR72)” is -0.0925; for “ETFRF1 (peptide sequence: ELEALYFLR, peptide start residue: 65) (UniProt Q6IPR1)” it is -0.106; for “RPL22L1 (peptide sequence: TGNLGNVVHIER, peptide start residue: 48) (UniProt Q6P5R6)” it is 0.142.
Consider “PACS1 (peptide sequence: TNSSDSERSPDLGHSTQIPR, peptide start residue: 526) (UniProt Q6VY07)”, for which the log2 fold change came to 1.01.
The figure for “DNMBP (peptide sequence: LLDFYNCTER, peptide start residue: 1128) (UniProt Q6XZF7)” is -0.591.
The figure for “FIGNL1 (peptide sequence: FKDSLLEPALASVVIHK, peptide start residue: 125) (UniProt Q6PIW4)” is 0.304.
To “LRSAM1 (peptide sequence: KRLEYQMCLAK, peptide start residue: 16) (UniProt Q6UWE0)” belongs 1.07; to “TRIM68 (peptide sequence: NLRPNWQLANVVEK, peptide start residue: 68) (UniProt Q6AZZ1)”, 0.863.
For “NFRKB (peptide sequence: IVQGLGVMPPK, peptide start residue: 1090) (UniProt Q6P4R8)”, the log2 fold change worked out at 0.342.
The figure for “ARHGAP11A (peptide sequence: EVNGCSGVNR, peptide start residue: 447) (UniProt Q6P4F7)” is -0.894.
To “UniProt Q6XQN6 (peptide sequence: ARDAAEFELFFR, peptide start residue: 35)” belongs -0.52; to “CEP135 (peptide sequence: MTSQDEEAHVMK, peptide start residue: 715) (UniProt Q66GS9)”, -0.601.
The figure for “WASH2P (peptide sequence: QKEQEQVR, peptide start residue: 375) (UniProt Q6VEQ5)” is 0.125; for “FAM160B1 (peptide sequence: GVPNVISEDTLK, peptide start residue: 184) (UniProt Q5W0V3)” it is 0.109; for “EDC4 (peptide sequence: LTAVEGSMKENISK, peptide start residue: 1074) (UniProt Q6P2E9)” it is -0.198.
In the case of “TTC37 (peptide sequence: EAVLSCSQALK, peptide start residue: 324) (UniProt Q6PGP7)”, the log2 fold change is -0.608.
The figure for “C22orf39 (peptide sequence: HFLHHYYVHGERPACEQWQR, peptide start residue: 65) (UniProt Q6P5X5)” is -0.368; for “TATDN1 (peptide sequence: KKWESGHCLK, peptide start residue: 246) (UniProt Q6P1N9)” it is 0.476.
To “UniProt Q6T423 (peptide sequence: QELEAAQK, peptide start residue: 326)” belongs 0.0391; to “UniProt Q6UXN9 (peptide sequence: YTHAANTVVYSSNK, peptide start residue: 71)”, -0.207; to “AAGAB (peptide sequence: DKAATLPHEQRK, peptide start residue: 274) (UniProt Q6PD74)”, 0.987.
